Some entries repeat one wording, which the source may state once for all of them.

From PMC9587031, “Antibiotic polymyxin arranges lipopolysaccharide into crystalline structures to solidify the bacterial membrane” (Nature Communications, 2022) come the findings set out here.

The subject of data set [1] is OM patches from E. coli MG1655 WT strain. The experiment in a line: AFM imaging of crystalline structure formation on OM patches. Set-up: species or system Escherichia coli. The procedure:
E. coli MG1655 strains were transformed with the pY200 plasmid that carries an mCherry gene preceded by the periplasmic export signal of the skp protein under control of the lux promoter. This construct enables over-expression of mCherry into the periplasmic space, which in turn increases the OMV production. Cultures were grown in LB medium (Difco) with 50 µg/ml spectinomycin (Fischer Scientific) at 37 °C. Expression of mCherry was induced at an OD600 ≈ 0.4 by N-(β ketocaproyl)-L-homoserine lactone (HSL, Cayman Chemical). After induction, the cultures were grown until they reached the early stationary phase, and bacteria were removed by centrifugation at 10,000 g for 10 min. The supernatant was filtered through a 0.45 µm filter unit (Merck Millipore) for the removal of residual bacteria. The OMVs were collected from the filtered supernatant by centrifugation at 38,400 g for 1.5 h. The pellet was resuspended in 12 ml Dulbecco’s phosphate-buffered saline buffer supplemented with magnesium and calcium (Sigma-Aldrich), and collected by two rounds of ultracentrifugation at 100,000 g for 1 h each. In the last step, the OMVs were resuspended in 1 ml DPBS buffer, aliquoted, and stored at –80 °C.
OMVs produced from different E. coli MG1655 strains were adsorbed onto freshly cleaved mica for 15 min in DPBS buffer at room temperature. After adsorption, the sample was gently washed with fresh DPBS buffer for five times to remove non-adsorbed OMVs. Then OMVs were imaged using force-distance curve-based AFM (FD-based AFM) performed with an AFM (Nanoscope Multimode 8, Bruker) operated in PeakForce Tapping mode in buffer solution (DPBS) at room temperature. The AFM was equipped with a 120 μm piezoelectric J scanner and fluid cell. The images were recorded using two different AFM cantilevers: PEAKFORCE‐HiRs‐F‐A (Bruker) with a nominal spring constant of 0.4 N/m, a resonance frequency of ≈ 165 kHz in liquid, and a sharpened silicon tip with a nominal radius of ≈ 1 nm or SCANASYST-FLUID + (Bruker) with a nominal spring constant of 0.7 N/m, a resonance frequency of ≈ 150 kHz in liquid, and a sharpened silicon tip with a nominal radius of ≈ 2 nm. Before imaging, cantilevers were calibrated by ramping on the mica surface and the thermal tuning method. Images were recorded at 2 kHz oscillation frequency, by applying an imaging force of 100–120 pN with a vertical amplitude of 30 nm. The AFM was placed inside a home‐built acoustic isolated and temperature‐controlled box. Raw AFM images were processed using the AFM analysis software Nanoscope v.1.8 for levelling and flattening.
AFM images were transformed with an automated image analysis script that identifies and characterizes local features by their Fourier transformation (FT)[60]. The analysis applies a moving local window (32×32 pixels, step size:16 pixels) on AFM images, and for each local window, a 2D power spectrum FT is computed, followed by machine learning processing. First, the number of components/fractions in the data is determined by computing the principal component analysis scree plot. Secondly, the data is blindly decomposed into different interpretable components by non-negative matrix factorization. The analysis script is publicly available as a Python analysis notebook and program for batch processing at (10.17632/25x46xjyr5.2).
Processed AFM images were analyzed using ilastik software (version 1.4.0b13) for automated (supervised) pixel classification with trained classifiers. Classifier files are available upon request. Through classification, the probability maps of AFM images were generated and exported as.tif files. The probability maps were opened in Fiji (ImageJ2 v.2.3.0) to perform particle analysis on threshold-selected features. The distance comparison histograms were generated from particle analysis data using Python’s data visualization library seaborn (v.0.11.2).

The test system is the same in data set [2]. Put plainly: FD-based AFM elastic modulus and deformation of OM patches. Also on record: species or system Escherichia coli. Conditions: for Deformation mean / Elastic modulus mean: polymyxin E titration.
For data set [3], the system named is E. coli K-12 MG1655 MCR-1 bacteria. The experiment in a line: In-cell solid-state 31P-NMR T1ρ relaxation. It counts as cell-based, Escherichia coli. Conditions: 31P ssNMR, intact cells, n = 1; untreated 3.6, 8.2, 8.9.
Where [4] appears, read: OM patches MG1655, 1 mg/l polymyxin E.

With Polymyxin E, the “protrusion of crystalline structures from the membrane surface” value in data set [1] (setting [4]) is 1–1.2 nm. In addition, in data set [1] (setting [4]), the “unit cell length of crystalline structures” value is “≈ 10 nm”. Also, the “lattice constant aWT” value in data set [1] (OM patches MG1655 WT after polymyxin E, mean ± SD, n = 244 structures) came to 9.8 ± 3.9 nm. Further, the “formation of crystalline structures” value in data set [1] (OM patches MG1655 WT incubated with 50 mg/l of the polymyxin variant (Fig. 3), repeated at least three times) is listed as “Crystalline structures are formed”. Moreover, in data set [2] (increasing concentrations of polymyxin E), the “decrease of deformation of OM patches by the crystalline structures” value is given as “≈ 20%”. Further, the Deformation mean was found to be 1.631 nm in data set [2] (0.3 mg/l (0 mg/l: 2.125)), 1.517 nm in data set [2] (0.6 mg/l), 1.465 nm in data set [2] (6 mg/l) and 1.368 nm in data set [2] (60 mg/l). The Elastic modulus mean in data set [2] (0.3 mg/l (0 mg/l: 11.639)) is recorded as 12.732 MPa; in data set [2] (0.6 mg/l) it was 15.616 MPa; in data set [2] (6 mg/l) it was 16.701 MPa; in data set [2] (60 mg/l) it was 20.963 MPa. In data set [3], the “T1ρ, isotropic phosphates, MCR1 + colistin” value stood at 8.7 ms.
